# Assay results reported in the supplement of paper PMC12889115.
# The list shows a part of the results. Values are raw readings; no control value is given beside them.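 Primary screen: polymyxin B was added at a level permeabilizing Salmonella outer membranes while sparing inner membranes. DMSO wells, both with and without polymyxin B, established maximum growth. Plate-to-plate variation meant each plate was ranked on its own, and the lowest-OD600 compounds were selected as hits.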
# System: Salmonella enterica serovar Typhimurium SL1344
# Experiment: bacterial growth OD600 after 18 h with compound and polymyxin B; higher = more bacterial growth (less inhibition)
# Conditions: 50 µM, Mueller-Hinton broth
Structure (SMILES),bacterial growth OD600 (polymyxin B 1 µg/mL),bacterial growth OD600 (polymyxin B 0.75 µg/mL)
CN(CCc1cnn(C)c1)Cc1cn(C)nc1-c1ccc2c(c1)OCCO2,0.876,
CC(=O)Nc1ccc(CN2CCOc3ccc(CN4CCC(Oc5cccnc5)CC4)cc3C2)cc1,,0.799
O=C(C#Cc1ccccc1)N1CCC(CO)(Cc2ccccc2Cl)CC1,0.08,
C[C@@H]1CN(C2CCN(C(=O)c3cc(COc4ccccc4)[nH]n3)CC2)C[C@H](C)O1,0.854,
CN(Cc1ccccc1)c1ncccc1CNC(=O)Cn1cccn1,,0.704
O=C(NCc1nc(NCCCc2ccccc2)c2ccccc2n1)c1ccccc1-c1ncc[nH]1,,0.771
C=CCOc1ccccc1CN1CCCC(CCOC)(C(=O)OCC)C1 (stereo not given),1.24,
NC(=O)CCNC(=O)C1CCCN(c2nc(-c3ccccc3)nc3c2CCC3)C1 (stereo not given),0.996,
Cc1[nH]c2c(CNCc3cnn(C)c3C)cc(F)cc2c1C,,0.883
COc1cc(CN2CCc3c(C(=O)N4CCc5ccccc5C4)c(OC)cc(=O)n3CC2)ccc1F,,0.818
COc1ccc(CCC(=O)NCCN2Cc3cc(C)ccc3OC(C)C2)cc1OC (stereo not given),,0.852
FC(F)(F)CCCN1CCC(C2CCN(Cc3cccnc3)CC2)C1 (stereo not given),,0.869
CCCCNC1CCN(c2cccc(NC(=O)c3cccc(C(F)(F)F)c3)c2)CC1,,0.74
OC(Cc1ccccc1)c1ccc2c(c1)CN(Cc1c[nH]nc1-c1ccc(F)cc1)CCO2 (stereo not given),,0.748
O=C1CCC(C(=O)N2CCCCCCC2)CN1CCc1ccccc1 (stereo not given),0.854,
Cn1ccnc1CN1CCCC(CCC(=O)Nc2ccccc2F)C1 (stereo not given),0.938,
CSCc1ccc(C(=O)N2CCC(CCC(=O)NCC3CCCO3)CC2)o1 (stereo not given),0.876,
CC(=O)c1ccc(F)c(-c2cc(C)cc3c2OC(CNC(=O)C2=CCCC2)C3)c1 (stereo not given),,0.007
COc1cccc(CNC(=O)C2(N3C[C@@H](C)O[C@@H](C)C3)Cc3ccccc3C2)c1,,0.001
O=C(Nc1cccc(-c2cscn2)c1)C1CCN(Cc2ccccc2)CC1,,0.657

# 2 entries picked at random from the list so far:
Structure (SMILES),bacterial growth OD600 (polymyxin B 1 µg/mL),bacterial growth OD600 (polymyxin B 0.75 µg/mL)
Cn1ccnc1CN1CCCC(CCC(=O)Nc2ccccc2F)C1 (stereo not given),0.938,
CC(=O)c1ccc(F)c(-c2cc(C)cc3c2OC(CNC(=O)C2=CCCC2)C3)c1 (stereo not given),,0.007
